Measured values reported in patent US11807644B2 (PMV Pharmaceuticals, Inc., priority 2020, dated 2023).
At least one structure is not confirmed: it was looked up by name or label, or the drawing left a doubt.

These compounds were tested against T1, recombinant His-tag Y220C p53 DBD protein (Homo sapiens, UniProt P04637, Y220C) (assay: In vitro DNA binding activity assay (TR-FRET): binding of His-tag Y220C p53 DBD to biotin-labeled consensus DNA). Conditions: SC150 = concentration to increase DNA binding by […].
T1 construct: recombinant His-tag Y220C p53 DBD protein (amino acids #˜94-312)
Type: biochemical
Experimental: DNA binding activity of the compounds was measured using a TR-FRET (Time-Resolved Fluorescence Resonance Energy Transfer) assay in which recombinant His-tag Y220C p53 DBD protein binds to biotin-labeled consensus DNA. Binding of recombinant His-tag Y220C p53 DBD protein and biotin-labeled consensus DNA was registered by the FRET (fluorescence resonance energy transfer) between allophycocyanin (APC) conjugated anti-His tag antibody and Europium-(Eu) conjugated Streptavidin.
The compounds of TABLES 1-9 (2 mM stock in dimethylsulfoxide) were diluted 3-fold in series in dimethylsulfoxide. 1.2 μL of a compound solution was added to each well of 384-well polypropylene black plates (NUNC). Thirty μL per well of 181 nM recombinant His-tag Y220C p53 DBD protein (amino acids #˜94-312; SEQ ID NO: 1) and 6.1 nM of APC conjugated anti-His tag antibody (Columbia Biosciences) in ice-cold Assay Buffer 1 (50 mM Tris-HCl, pH 7.4, 75 mM KCl, 0.75 mM DTT and 0.2 mg/ml, BSA) were added. As a background control. 30 μL of Assay Buffer 1 containing 6.1 nM of APC anti-His antibody (No Y220C protein) was also added into a second set of serially diluted compound plates. The samples were spun by centrifuge at 1,200 rpm (Eppendorf 5810R Plate centrifuge) for 1 minute and incubated at room temperature (20° C.) for 15 min. The samples were then further incubated at either 27° C. or 29° C. for 60 min. […] The samples were spun by centrifuge at 1,200 rpm for 1 min and incubated at room temperature (20° C.) for 20 min. Assay signals were monitored by reading excitation at 340 nm, and emission fluorescence at 615 nm and 665 nm on an Envision® reader. Normalized TR-FRET (time-resolved fluorescence resonance energy transfer) assay signal (Rn) was calculated by the formula: Rn=[(A−Ba−C×(D−Bd))/(D−Bd)]×(D−Bd) Wherein: • A is the fluorescence intensity of the sample at 665 nm; • D is the fluorescence intensity of the sample at 615 nm; • Ba and Bd are plate backgrounds at 665 nm and 615 nm, respectively; and • Dc is the fluorescence intensity of 0.67 nM Eu-SA in the assay buffer at 615 nm.
The cross-talk factor (C) was determined by the following formula: C=(Ac−Ba)/(Dc−Bd) wherein Ac is the fluorescence intensity of 0.67 nM Europium (Eu) conjugated Streptavidin in the assay buffer at 665 nm.

SMILES | Y220C SC150 (μM)
CN1CC[C@@H](Nc2cccc3c2cc(-c2noc(CNC(=O)c4cn(C5CCOCC5)cn4)n2)n3CC(F)(F)F)[C@@H](F)C1 [Compound 341B, N-{[3-(4-{[(3S,4R)-3-fluoro-1-methylpiperidin-4-yl]amino}-1-(2,2,2-trifluoroethyl)-1H-indol-2-yl)-1,2,4-oxadiazol-5-yl]methyl}-1-(oxan-4-yl)-1H-imidazole-4-carboxamide] | * (* = 0 μM ≤ SC150 < 0.1 μM)
COC(C)(C)c1ccc(C(=O)NCc2nc(-c3cc4c(N[C@@H]5CCOC[C@@H]5F)cccc4n3CC(F)(F)F)no2)s1 [Compound 506B, N-{[3-(4-{[(3R,4R)-3-fluorooxan-4-yl]amino}-1-(2,2,2-trifluoroethyl)-1H-indol-2-yl)-1,2,4-oxadiazol-5-yl]methyl}-5-(2-methoxypropan-2-yl)thiophene-2-carboxamide] | * (* = 0 μM ≤ SC150 < 0.1 μM)
CN1CCC(Nc2cccc3c2cc(-c2nnc(CNC(=O)c4ccn[nH]4)s2)n3CC(F)(F)F)CC1 [Compound 73B, N-[(5-{4-[(1-methylpiperidin-4-yl)amino]-1-(2,2,2-trifluoroethyl)-1H-indol-2-yl}-1,3,4-thiadiazol-2-yl)methyl]-1H-pyrazole-5-carboxamide] | * (* = 0 μM ≤ SC150 < 0.1 μM)
COC(C)(C)c1cc(C(=O)NCc2nc(-c3cc4c(N[C@@H]5CCOC[C@@H]5F)cccc4n3CC(F)(F)F)no2)cs1 [Compound 500B, N-{[3-(4-{[(3R,4R)-3-fluorooxan-4-yl]amino}-1-(2,2,2-trifluoroethyl)-1H-indol-2-yl)-1,2,4-oxadiazol-5-yl]methyl}-5-(2-methoxypropan-2-yl)thiophene-3-carboxamide] | * (* = 0 μM ≤ SC150 < 0.1 μM)
CN1CC[C@@H](Nc2cccc3c2cc(-c2noc(CNC(=O)c4cncs4)n2)n3CC(F)(F)F)[C@@H](F)C1 (racemic) [Compound 178B, (+/−)-N-{[3-(4-{[(3R,4S)-3-fluoro-1-methylpiperidin-4-yl]amino}-1-(2,2,2-trifluoroethyl)-1H-indol-2-yl)-1,2,4-oxadiazol-5-yl]methyl}-1,3-thiazole-5-carboxamide] | * (* = 0 μM ≤ SC150 < 0.1 μM)
CCN1CC[C@@H](Nc2cccc3c2cc(-c2noc(CNC(=O)c4cnn(C5CCCC5)c4)n2)n3CC(F)(F)F)[C@@H](F)C1 [Compound 313B, 1-cyclopentyl-N-{[3-(4-{[(3S,4R)-1-ethyl-3-fluoropiperidin-4-yl]amino}-1-(2,2,2-trifluoroethyl)-1H-indol-2-yl)-1,2,4-oxadiazol-5-yl]methyl}-1H-pyrazole-4-carboxamide] | * (* = 0 μM ≤ SC150 < 0.1 μM)
COC1CCN(c2nc(C(=O)NCc3nc(-c4cc5c(N[C@@H]6CCN(C)C[C@@H]6F)cccc5n4CC(F)(F)F)no3)cs2)CC1 [Compound 518B, N-{[3-(4-{[(3S,4R)-3-fluoro-1-methylpiperidin-4-yl]amino}-1-(2,2,2-trifluoroethyl)-1H-indol-2-yl)-1,2,4-oxadiazol-5-yl]methyl}-2-(4-methoxypiperidin-1-yl)-1,3-thiazole-4-carboxamide] | * (* = 0 μM ≤ SC150 < 0.1 μM)
COC(C)(C)c1cc(C(=O)NCc2nc(-c3cc4c(N[C@H]5CCOC[C@H]5F)cccc4n3CC(F)(F)F)no2)cs1 [Compound 499B, N-{[3-(4-{[(3S,4S)-3-fluorooxan-4-yl]amino}-1-(2,2,2-trifluoroethyl)-1H-indol-2-yl)-1,2,4-oxadiazol-5-yl]methyl}-5-(2-methoxypropan-2-yl)thiophene-3-carboxamide] | * (* = 0 μM ≤ SC150 < 0.1 μM)
CN1CC[C@@H](Nc2cccc3c2cc(-c2noc(CNc4nccc5c4cnn5C(C)(C)C)n2)n3CC(F)(F)F)[C@@H](F)C1 [Compound 455B, 2-{5-[({1-tert-butyl-1H-pyrazolo[4,3-c]pyridin-4-yl}amino)methyl]-1,2,4-oxadiazol-3-yl}-N-[(3S,4R)-3-fluoro-1-methylpiperidin-4-yl]-1-(2,2,2-trifluoroethyl)-1H-indol-4-amine] | * (* = 0 μM ≤ SC150 < 0.1 μM)
CN1CCC(Nc2cccc3c2cc(-c2noc(CNC(=O)C4CC4)n2)n3CC(F)(F)F)CC1 [Compound 146B, N-[(3-{4-[(1-methylpiperidin-4-yl)amino]-1-(2,2,2-trifluoroethyl)-1H-indol-2-yl}-1,2,4-oxadiazol-5-yl)methyl]cyclopropanecarboxamide] | * (* = 0 μM ≤ SC150 < 0.1 μM)
CN1CC[C@@H](Nc2cccc3c2cc(-c2noc(CNc4nccc5nn(C(C)(C)C)cc45)n2)n3CC(F)(F)F)[C@@H](F)C1 [Compound 456B, 2-{5-[({2-tert-butyl-2H-pyrazolo[4,3-c]pyridin-4-yl}amino)methyl]-1,2,4-oxadiazol-3-yl}-N-[(3S,4R)-3-fluoro-1-methylpiperidin-4-yl]-1-(2,2,2-trifluoroethyl)-1H-indol-4-amine] | * (* = 0 μM ≤ SC150 < 0.1 μM)
CN1CC[C@@H](Nc2cccc3c2cc(-c2noc(CNC(=O)c4csc(N5CC6CCC(C5)O6)n4)n2)n3CC(F)(F)F)[C@@H](F)C1 [Compound 516B, N-{[3-(4-{[(3S,4R)-3-fluoro-1-methylpiperidin-4-yl]amino}-1-(2,2,2-trifluoroethyl)-1H-indol-2-yl)-1,2,4-oxadiazol-5-yl]methyl}-2-{8-oxa-3-azabicyclo[3.2.1]octan-3-yl}-1,3-thiazole-4-carboxamide] | * (* = 0 μM ≤ SC150 < 0.1 μM)
